In patent publication US11964025 (dated 2024) one finds conjugation yield data, which are given here for one substance.

The series in a line: general procedure: solution-phase peptide synthesis; EDC/NHS; HATU/HOAt/DIEA; EDC/HOAt. The conditions noted are these: conjugation step.

Regarding Bis-Glucamine Scaffold 75, the conjugation yield result was “yield 82%”.
